PubChem BioAssay AID1671195, Yale University, 2021
Shown is one part, drawn at random, of about 22,000 reagents tested. About 1,510 of them (6.9%) were called active. 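Active includes knockdowns raising or lowering LDL uptake; positive z-scores mean more uptake, negative mean less.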 A number with no mark means an inactive call. Reagent sequences are not shown.

Assay: 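Genes whose knockdown alters LDL uptake in liver cancer cells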 (primary screen)
Cell system: human Huh7 hepatoma cells
Reagents: siRNA pool against human genes, 18 nM
Time to read-out: about 2 to 2.5 days of knockdown, then 8 h LDL uptake
Conditions: DiI-labelled LDL at 30 µg/ml for 8 h, in lipoprotein-deficient serum medium
Measured: 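Fluorescent LDL signal imaged in cells, scaled to the plate median, robust z-score for each replicate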
Scale: robust z-score: higher = more LDL uptake after knockdown
Active means: 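a gene counts as active if at least two replicate z-scores exceed ±2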

| gene symbol | robust z-score, replicate 1 | robust z-score, replicate 2 | robust z-score, replicate 3 |
| --- | --- | --- | --- |
| NOD2 (nucleotide binding oligomerization domain containing 2) | -0.0444 | -0.405 | -0.12 |
| ERICH5 (glutamate rich 5) | 1.9 | 0.935 | 1.01 |
| LOC390342 (retired record) | -0.0234 | 0.335 | 0.187 |
| LOC390913 (retired record) | 1.16 | 1.78 | 1.42 |
| TLX1 (T cell leukemia homeobox 1) | -1.02 | -0.0126 | -0.351 |
| FBLL1 (fibrillarin like rRNA 2'-O-methyltransferase 1) | -1.73 | -1.88 | -1.89 |
| SAC3D1 (SAC3 domain containing 1) | -0.208 | 0.0269 | -1.29 |
| NPEPPSP1 (NPEPPS pseudogene 1) | -0.304 | -0.604 | -0.53 |
| MAPK1 (mitogen-activated protein kinase 1) | -0.107 | 0.27 | 0.0263 |
| TCEA1 (transcription elongation factor A1) | 0.848 (active) | 2.69 | 1.92 |
| REC8 (REC8 meiotic cohesin complex component) | -1.25 | -1.92 | 0.218 |
| DNAJB12 (DnaJ heat shock protein family (Hsp40) member B12) | 0.73 | 1.19 | 1.1 |
| CLCNKB (chloride voltage-gated channel Kb) | 1.08 | 0.387 | 1.62 |
| RAB3IP (RAB3A interacting protein) | 0.348 | 1.29 | 0.663 |
| LOC388388 (retired record) | -0.955 | -0.806 | -0.998 |
| CLEC2D (C-type lectin domain family 2 member D) | -0.235 | -1.61 | -0.792 |
| AHNAK2 (AHNAK nucleoprotein 2) | -1.51 | -0.415 | -1.06 |
| PRKAG2 (protein kinase AMP-activated non-catalytic subunit gamma 2) | -0.33 | -0.107 | -0.555 |
| LOC440731 (retired record) | 0.134 | 0.0864 | 0.341 |
| INSL6 (insulin like 6) | -0.106 | -0.321 | -0.282 |
| GCKR (glucokinase regulator) | -0.317 | -0.669 | -0.15 |
| BCL2L10 (BCL2 like 10) | 1.61 | 1.3 | 0.684 |
| SERPINB12 (serpin family B member 12) | 1.92 | 0.279 | 1.46 |
| CLTRN (collectrin, amino acid transport regulator) | -1.07 | -0.568 | -0.636 |
| BTF3L4P3 (basic transcription factor 3 like 4 pseudogene 3) | 2.17 (active) | 1.83 | 1.91 |
| LINC03122 (long independently transcribed non-coding RNA 3122) | -0.059 | 0.155 | -0.311 |
| IMPDH2 (inosine monophosphate dehydrogenase 2) | -1.24 | -1.25 | -1.34 |
| KIF1C (kinesin family member 1C) | -0.731 | 0.113 | -0.322 |

2 successive entries from above:
| gene symbol | robust z-score, replicate 1 | robust z-score, replicate 2 | robust z-score, replicate 3 |
| --- | --- | --- | --- |
| BTF3L4P3 (basic transcription factor 3 like 4 pseudogene 3) | 2.17 (active) | 1.83 | 1.91 |
| LINC03122 (long independently transcribed non-coding RNA 3122) | -0.059 | 0.155 | -0.311 |
